Measurements published in paper PMC8950151, “Synthesis and Evaluation of the Antifungal and Toxicological Activity of Nitrofuran Derivatives” (Pharmaceutics, 2022).

Assays:
[1] = tested on: A549 (ATCC CCL-185) lung epithelial cell line; experiment: Cytotoxicity assay in monolayer by resazurin colorimetric method; format: cell-based, human; details: for Calculated SI H. capsulatum: ratio IC50 / MIC90
[2] = tested on: MRC-5 (ATCC CCL-171) pulmonary fibroblast cell line; details: for Calculated SI H. capsulatum / Calculated SI T. mentagrophytes: ratio IC50 / MIC90

| SMILES | Calculated SI H. capsulatum [1] | Calculated SI H. capsulatum [2] | Calculated SI T. mentagrophytes [2] | Calculated SI P. brasiliensis ([1]; A549 IC50 versus MIC90 of P. brasiliensis) | Calculated SI P. brasiliensis ([2]; MRC-5 IC50 versus MIC90 of P. brasiliensis) | Calculated SI C. glabrata ([1]; A549 IC50 versus MIC90 of C. glabrata) | Calculated SI C. glabrata ([2]; MRC-5 IC50 versus MIC90 of C. glabrata) |
| --- | --- | --- | --- | --- | --- | --- | --- |
| O=C(NCCc1ccccn1)c1ccc([N+](=O)[O-])o1 [Compound 3, 5-nitro-N-(2-(pyridin-2-yl)ethyl)furan-2-carboxamide] | 59.28 | 64.10 | 4.00 |  |  |  |  |
| O=C(/C=C/c1ccc([N+](=O)[O-])o1)c1ccc(Br)cc1 [Compound 11] | 25.50 | 130.33 | 8.02 |  |  |  |  |
| CSc1ccc(C(=O)/C=C/c2ccc([N+](=O)[O-])o2)cc1 [Compound 13] | 0.14 | 0.03 | 4.23 |  |  |  |  |
| O=C(/C=C/c1ccc([N+](=O)[O-])o1)c1ccccc1 [Compound 8] | 3.44 | 0.42 | 6.79 |  |  |  |  |
| O=C(NCCc1c[nH]c2ccccc12)c1ccc([N+](=O)[O-])o1 [Compound 7] | 8.75 | 72.69 | 0.56 |  |  |  |  |
| O=C(NCc1ccccn1)c1ccc([N+](=O)[O-])o1 [Compound 4] | 7.56 | 34.66 | 4.32 | 7.56 | 34.66 |  |  |
| CN(C)CCCNC(=O)c1ccc([N+](=O)[O-])o1 [Compound 6] | 0.05 | 0.06 | 0.06 |  |  |  |  |
| O=C(/C=C/c1ccccc1)OCc1ccc([N+](=O)[O-])o1 [Compound 1] | 1.00 | 0.96 | 15.41 |  |  |  |  |
| O=C(NCCCn1ccnc1)c1ccc([N+](=O)[O-])o1 [Compound 2, N-(3-(1H-imidazol-1-yl)propyl)-5-nitrofuran-2-carboxamide] | 0.19 | 0.36 | 0.72 |  |  |  |  |
| O=C(/C=C/c1ccc([N+](=O)[O-])o1)c1ccc(F)cc1 [Compound 9] | 6.00 | 12.11 | 24.22 |  |  |  |  |
| O=C(/C=C/c1ccc([N+](=O)[O-])o1)c1ccc(Cl)cc1 [Compound 10] | 4.95 | 27.58 | 55.23 |  |  |  |  |
| O=C(/C=C/c1ccc([N+](=O)[O-])o1)c1ccc(-n2ccnc2)cc1 [Compound 14] | 4.28 | 3.43 | 13.74 |  |  | 4.28 | 3.43 |
| O=C(/C=C/c1ccc([N+](=O)[O-])o1)c1ccc(Cl)cc1Cl [Compound 16, (E)-1-(2,4-dichlorophenyl)-3-(5-nitrofuran-2-yl)prop-2-en-1-one] | 0.56 | 0.47 | 3.83 |  |  |  |  |
| O=C(NCCCc1ccccc1)c1ccc([N+](=O)[O-])o1 [Compound 5] | 15.44 | 20.38 | 1.27 |  |  |  |  |
| CS(=O)(=O)c1ccc(C(=O)/C=C/c2ccc([N+](=O)[O-])o2)cc1 [Compound 15, (E)-1-(4-(methylsulfonyl)phenyl)-3-(5-nitrofuran-2-yl)prop-2-en-1-one] | 0.13 | 0.04 | 1.47 |  |  |  |  |
| COc1ccc(C(=O)/C=C/c2ccc([N+](=O)[O-])o2)cc1 [Compound 12] | 32.01 | 29.19 | 116.92 |  |  |  |  |
